Assay results: patent US20060239968A1 (University of Texas, published 2006)
No constants are given. Whether binding was seen depends on the method and setting. A result given as binding can be weak or reduced; the word gives no strength.

Molecular target: T1, prohibitin (B cell receptor associated protein) (mouse)
T1 sequence (P67778 2-272, looked up): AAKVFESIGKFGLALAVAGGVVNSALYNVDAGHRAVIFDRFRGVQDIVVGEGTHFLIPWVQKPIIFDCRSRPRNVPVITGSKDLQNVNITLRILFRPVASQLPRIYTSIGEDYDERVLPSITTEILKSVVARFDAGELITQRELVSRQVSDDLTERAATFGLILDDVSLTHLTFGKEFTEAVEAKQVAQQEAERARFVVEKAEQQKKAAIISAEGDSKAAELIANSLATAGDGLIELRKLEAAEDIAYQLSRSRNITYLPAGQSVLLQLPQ
Test: immunoprecipitation from mouse adipose tissue extract, SDS-PAGE

B1: CARAC (SEQ ID NO:71) conjugated to (KLAKLAK)2 (SEQ ID NO:1) (peptide)
peptide: CARACKLAKLAKKLAKLAK
modifications: cyclized using the terminal cysteines
Which binding does the source give for B1 here?
Its binding is “binds”.
